log2 fold change data for 9 targets are collected here from the supplement of paper PMC12819154, “High-throughput peptide-centric local stability assay extends protein–ligand identification to membrane proteins, tissues and bacteria” (Nature Structural & Molecular Biology, 2025).

Protein sequences, listed by entry. Tags and fused reporters are not part of them. Lines headed by an entry give the natural chain unless they say otherwise; changes in a name come on top.
UniProt Q7L266: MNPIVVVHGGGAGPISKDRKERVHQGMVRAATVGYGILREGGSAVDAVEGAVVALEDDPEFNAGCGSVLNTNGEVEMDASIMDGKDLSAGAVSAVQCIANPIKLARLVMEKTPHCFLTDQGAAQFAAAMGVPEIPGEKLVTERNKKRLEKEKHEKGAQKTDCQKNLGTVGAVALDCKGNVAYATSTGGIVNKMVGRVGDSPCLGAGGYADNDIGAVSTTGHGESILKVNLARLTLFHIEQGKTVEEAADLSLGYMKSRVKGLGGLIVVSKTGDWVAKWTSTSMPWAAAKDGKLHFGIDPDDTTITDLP
UniProt Q7Z2K8: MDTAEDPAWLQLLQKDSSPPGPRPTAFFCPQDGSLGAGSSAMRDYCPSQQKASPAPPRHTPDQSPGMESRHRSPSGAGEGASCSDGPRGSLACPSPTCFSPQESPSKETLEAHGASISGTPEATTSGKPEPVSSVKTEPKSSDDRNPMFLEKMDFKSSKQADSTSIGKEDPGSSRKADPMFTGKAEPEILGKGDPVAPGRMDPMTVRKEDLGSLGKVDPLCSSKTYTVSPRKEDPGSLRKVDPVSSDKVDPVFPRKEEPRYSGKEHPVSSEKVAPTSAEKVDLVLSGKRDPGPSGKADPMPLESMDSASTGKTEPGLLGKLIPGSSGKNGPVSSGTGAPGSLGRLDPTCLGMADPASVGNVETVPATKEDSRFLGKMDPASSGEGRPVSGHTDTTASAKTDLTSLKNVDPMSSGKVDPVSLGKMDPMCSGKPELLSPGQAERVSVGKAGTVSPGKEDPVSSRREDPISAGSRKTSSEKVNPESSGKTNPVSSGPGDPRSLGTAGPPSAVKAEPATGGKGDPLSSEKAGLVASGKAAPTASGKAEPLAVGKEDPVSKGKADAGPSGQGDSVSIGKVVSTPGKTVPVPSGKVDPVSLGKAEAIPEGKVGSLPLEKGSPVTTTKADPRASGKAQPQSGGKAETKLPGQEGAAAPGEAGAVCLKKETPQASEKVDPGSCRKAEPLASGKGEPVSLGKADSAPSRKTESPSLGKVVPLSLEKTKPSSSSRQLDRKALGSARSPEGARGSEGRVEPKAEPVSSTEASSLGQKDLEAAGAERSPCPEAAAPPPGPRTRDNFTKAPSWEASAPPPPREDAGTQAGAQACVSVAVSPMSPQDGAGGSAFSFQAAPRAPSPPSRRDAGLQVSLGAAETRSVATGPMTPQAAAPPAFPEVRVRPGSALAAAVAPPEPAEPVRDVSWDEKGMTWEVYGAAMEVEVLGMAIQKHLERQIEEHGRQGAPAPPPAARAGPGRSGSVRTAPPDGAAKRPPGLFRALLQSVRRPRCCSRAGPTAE
UniProt Q7Z392: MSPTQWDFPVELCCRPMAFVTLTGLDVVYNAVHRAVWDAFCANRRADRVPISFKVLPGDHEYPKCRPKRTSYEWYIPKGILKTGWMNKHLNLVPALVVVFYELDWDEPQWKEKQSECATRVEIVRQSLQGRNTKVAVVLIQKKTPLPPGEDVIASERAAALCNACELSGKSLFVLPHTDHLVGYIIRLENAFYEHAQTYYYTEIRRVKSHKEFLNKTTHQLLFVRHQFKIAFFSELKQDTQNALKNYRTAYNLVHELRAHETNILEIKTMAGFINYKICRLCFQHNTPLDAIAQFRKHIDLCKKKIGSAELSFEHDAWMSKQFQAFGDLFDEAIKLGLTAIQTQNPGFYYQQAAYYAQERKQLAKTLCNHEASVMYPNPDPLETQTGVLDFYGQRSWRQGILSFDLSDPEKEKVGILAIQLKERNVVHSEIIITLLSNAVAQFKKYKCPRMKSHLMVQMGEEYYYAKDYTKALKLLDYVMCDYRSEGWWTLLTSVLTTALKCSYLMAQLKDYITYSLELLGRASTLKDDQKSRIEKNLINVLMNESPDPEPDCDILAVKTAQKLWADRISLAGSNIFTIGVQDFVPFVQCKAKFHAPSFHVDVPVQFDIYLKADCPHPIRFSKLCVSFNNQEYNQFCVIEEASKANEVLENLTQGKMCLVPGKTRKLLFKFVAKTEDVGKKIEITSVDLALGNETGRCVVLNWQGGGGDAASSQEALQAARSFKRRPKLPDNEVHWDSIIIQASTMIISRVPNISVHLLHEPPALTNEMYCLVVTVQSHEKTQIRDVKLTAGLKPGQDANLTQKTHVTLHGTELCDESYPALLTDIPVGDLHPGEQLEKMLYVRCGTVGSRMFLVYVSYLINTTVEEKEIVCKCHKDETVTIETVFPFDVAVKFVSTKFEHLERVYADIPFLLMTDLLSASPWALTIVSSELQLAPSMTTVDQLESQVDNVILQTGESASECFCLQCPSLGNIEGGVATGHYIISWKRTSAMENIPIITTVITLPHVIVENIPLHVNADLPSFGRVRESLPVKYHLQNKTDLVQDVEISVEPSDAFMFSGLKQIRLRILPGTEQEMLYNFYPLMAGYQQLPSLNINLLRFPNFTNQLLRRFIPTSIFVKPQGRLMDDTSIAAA
UniProt Q70J99: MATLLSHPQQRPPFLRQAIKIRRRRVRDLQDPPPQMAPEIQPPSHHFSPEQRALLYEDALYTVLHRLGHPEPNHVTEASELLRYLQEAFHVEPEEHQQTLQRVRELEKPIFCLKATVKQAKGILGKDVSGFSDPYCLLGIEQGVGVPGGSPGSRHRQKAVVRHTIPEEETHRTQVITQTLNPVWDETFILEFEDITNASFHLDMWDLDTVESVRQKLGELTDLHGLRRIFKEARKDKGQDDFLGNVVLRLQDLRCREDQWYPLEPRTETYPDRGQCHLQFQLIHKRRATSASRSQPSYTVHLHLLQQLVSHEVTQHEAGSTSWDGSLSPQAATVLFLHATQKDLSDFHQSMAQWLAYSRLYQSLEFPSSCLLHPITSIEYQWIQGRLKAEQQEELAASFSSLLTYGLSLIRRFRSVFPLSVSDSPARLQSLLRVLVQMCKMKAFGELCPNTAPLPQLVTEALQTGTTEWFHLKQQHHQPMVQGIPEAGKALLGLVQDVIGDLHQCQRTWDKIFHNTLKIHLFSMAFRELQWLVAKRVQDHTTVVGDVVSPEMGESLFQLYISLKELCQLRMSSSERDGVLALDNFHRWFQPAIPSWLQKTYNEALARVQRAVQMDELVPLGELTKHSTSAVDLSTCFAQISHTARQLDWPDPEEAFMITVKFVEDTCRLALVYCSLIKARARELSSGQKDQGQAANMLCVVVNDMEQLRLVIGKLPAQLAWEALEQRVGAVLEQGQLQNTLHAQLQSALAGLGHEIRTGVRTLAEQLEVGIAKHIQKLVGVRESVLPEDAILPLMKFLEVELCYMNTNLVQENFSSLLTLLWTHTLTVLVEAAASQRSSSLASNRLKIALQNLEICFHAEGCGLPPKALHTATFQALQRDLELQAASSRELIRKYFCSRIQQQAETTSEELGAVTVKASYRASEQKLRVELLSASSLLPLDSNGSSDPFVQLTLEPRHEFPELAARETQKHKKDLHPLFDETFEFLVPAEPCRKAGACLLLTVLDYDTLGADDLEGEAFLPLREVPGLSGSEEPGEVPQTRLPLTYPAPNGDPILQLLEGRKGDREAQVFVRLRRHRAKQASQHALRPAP
UniProt Q7L591: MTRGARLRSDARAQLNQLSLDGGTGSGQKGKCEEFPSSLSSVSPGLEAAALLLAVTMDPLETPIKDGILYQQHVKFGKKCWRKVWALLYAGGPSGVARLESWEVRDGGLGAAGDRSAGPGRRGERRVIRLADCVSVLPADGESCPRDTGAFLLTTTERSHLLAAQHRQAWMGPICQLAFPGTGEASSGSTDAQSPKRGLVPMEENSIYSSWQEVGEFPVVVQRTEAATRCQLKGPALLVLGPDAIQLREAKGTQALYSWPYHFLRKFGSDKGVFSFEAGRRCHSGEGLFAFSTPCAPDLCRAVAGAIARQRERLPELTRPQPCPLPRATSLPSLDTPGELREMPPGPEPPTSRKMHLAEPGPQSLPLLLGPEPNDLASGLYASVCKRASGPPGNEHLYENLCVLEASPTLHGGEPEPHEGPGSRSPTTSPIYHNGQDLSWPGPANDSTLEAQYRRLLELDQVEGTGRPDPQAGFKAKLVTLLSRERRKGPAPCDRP
UniProt Q7L099: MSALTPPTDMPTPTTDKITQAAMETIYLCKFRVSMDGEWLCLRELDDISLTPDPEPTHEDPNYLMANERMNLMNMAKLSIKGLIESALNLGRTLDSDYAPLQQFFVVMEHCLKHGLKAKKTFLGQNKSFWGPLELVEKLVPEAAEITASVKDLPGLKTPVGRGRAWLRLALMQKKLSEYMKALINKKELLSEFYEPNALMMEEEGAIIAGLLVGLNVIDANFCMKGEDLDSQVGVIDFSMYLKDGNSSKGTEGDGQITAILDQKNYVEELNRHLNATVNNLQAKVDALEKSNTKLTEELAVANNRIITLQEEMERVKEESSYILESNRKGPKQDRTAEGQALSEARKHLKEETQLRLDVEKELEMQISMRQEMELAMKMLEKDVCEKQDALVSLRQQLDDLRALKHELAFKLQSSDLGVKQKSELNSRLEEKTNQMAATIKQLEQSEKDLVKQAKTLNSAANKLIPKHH
UniProt Q7Z7A3: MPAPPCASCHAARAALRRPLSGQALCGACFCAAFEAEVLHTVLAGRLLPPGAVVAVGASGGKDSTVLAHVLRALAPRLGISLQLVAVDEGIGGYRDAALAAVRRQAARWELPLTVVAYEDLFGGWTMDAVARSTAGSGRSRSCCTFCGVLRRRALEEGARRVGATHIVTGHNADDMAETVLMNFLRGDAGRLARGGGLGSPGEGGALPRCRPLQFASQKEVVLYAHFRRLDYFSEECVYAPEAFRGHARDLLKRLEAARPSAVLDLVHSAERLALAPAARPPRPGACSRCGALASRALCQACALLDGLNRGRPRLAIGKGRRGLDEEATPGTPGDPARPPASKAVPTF
UniProt Q7LBR1: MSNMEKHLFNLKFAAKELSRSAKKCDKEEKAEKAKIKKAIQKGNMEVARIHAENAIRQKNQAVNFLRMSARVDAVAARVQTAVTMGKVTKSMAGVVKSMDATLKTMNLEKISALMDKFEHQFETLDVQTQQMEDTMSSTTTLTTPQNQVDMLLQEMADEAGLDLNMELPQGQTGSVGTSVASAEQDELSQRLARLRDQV
UniProt Q6ZNX1: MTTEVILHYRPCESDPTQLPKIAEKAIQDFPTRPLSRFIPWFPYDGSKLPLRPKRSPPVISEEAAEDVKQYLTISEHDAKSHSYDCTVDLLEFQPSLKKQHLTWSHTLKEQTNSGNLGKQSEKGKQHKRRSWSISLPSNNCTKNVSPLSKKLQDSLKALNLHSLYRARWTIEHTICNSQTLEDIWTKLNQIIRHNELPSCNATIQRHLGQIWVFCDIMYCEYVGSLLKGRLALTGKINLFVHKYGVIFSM

Compound in this assay: CN[C@@H]1C[C@H]2O[C@@](C)([C@@H]1OC)n1c3ccccc3c3c4c(c5c6ccccc6n2c5c31)C(=O)NC4 [staurosporine]
Briefly: log2 fold change of tryptic peptide abundance, ligand vs vehicle (limited proteolysis) (log2 ratio); higher = more trypsin-susceptible (destabilized). The following applies: ligand concentration: 20 uM; sample: K562 cleared lysate; digestion: 4 min, 22 C (HT-PELSA RT4min, Orbitrap Astral).

This is one part of the list. Most entries show no effect beyond the scatter of the controls.

On to “ASRGL1 (peptide sequence: AATVGYGILR, peptide start residue: 30) (UniProt Q7L266)”, for which the log2 fold change is 0.0354.

For “GPRIN1 (peptide sequence: VVPLSLEK, peptide start residue: 710) (UniProt Q7Z2K8)”, the log2 fold change came to 0.322.

As to “UniProt Q7Z392 (peptide sequence: FIPTSIFVKPQGR, peptide start residue: 1111)”, the log2 fold change stood at 0.0683.

As to “UNC13D (peptide sequence: WFQPAIPSWLQK, peptide start residue: 588) (UniProt Q70J99)”, the log2 fold change is -0.219.

Turning to “DOK3 (peptide sequence: LESWEVR, peptide start residue: 99) (UniProt Q7L591)”, the log2 fold change is 0.248.

In the case of “RUFY3 (peptide sequence: MNLMNMAK, peptide start residue: 70) (UniProt Q7L099)”, the log2 fold change was 0.237.

With “UniProt Q7Z7A3 (peptide sequence: RLEAARPSAVLDLVHSAER, peptide start residue: 254)”, the log2 fold change stood at 0.217.

Regarding “CHMP1B (peptide sequence: IHAENAIR, peptide start residue: 50) (UniProt Q7LBR1)”, the log2 fold change was 0.124.

Turning to “UniProt Q6ZNX1 (peptide sequence: AIQDFPTRPLSR, peptide start residue: 26)”, the log2 fold change came to 0.335.
